This is one part of the list. The main result of the screen is listed elsewhere. These columns were measured beside it and carry no call. Compounds called inactive in the main read-out are mostly missing here. Potencies come from curve fits of mixed quality, noted in brackets.
Assay: qHTS Assay to Find Inhibitors of Chronic Active B-Cell Receptor Signaling
Conditions: ABC-DLBCL IkBa-CBG/CBR reporter, luminescence ratio (green luciferase fused to IkBa over red control in TMD8 lymphoma cells), 4 h
Method in brief: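 Concentration-response series (up to 46 uM) were applied to TMD8 dual-reporter cells for 4 h at 37C with doxycycline. Green/red ratio, after filter-overlap correction, defined %Activity; red signal alone was normalised to basal cells and zero luminescence.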

[1] = measured here: CBR red luminescence, cell number
[2] = measured here: IkBa-CBG green luminescence

Row | Structure (SMILES) | AC50 [1] | AC50 [2]
1 | CC(C)(C)c1cc(S(=O)(=O)CCc2ccccn2)cc(C(C)(C)C)c1F | 13 µM [falling, partial curve, poor fit] | –
2 | CC(=O)Nc1ccc2nc(-c3cccnc3)[nH]c2c1 | 29.1 µM [falling, single point] | 23.1 µM [rising, partial curve, poor fit]
3 | CN(CCc1cn[nH]c1)Cc1nc(C(c2ccccc2)c2ccccc2)no1 | 35.5 µM [falling, single point] | –
4 | CC(C)c1ccccc1NC(=S)N1CCN(Cc2ccc3c(c2)OCO3)CC1 | 22.4 µM [falling, partial curve, poor fit] | –
5 | Cc1c(NC(=O)C(c2ccccc2)c2ccccc2)cccc1C(=O)O | 12.6 µM [rising, partial curve, poor fit] | –
6 | O=c1[nH]c2ccccc2c(O)c1-c1ccccc1[N+](=O)[O-] | 35.5 µM [rising, single point] | –
7 | COc1ccc(/C=C2\SC(=S)N(CCC(=O)Nc3cccc(C(=O)O)c3)C2=O)cc1 | 2.82 µM [falling, full curve] | –
8 | CC(C)(C)c1ccc(/C=C2\Oc3cc(O)ccc3C2=O)cc1 | 35.5 µM [falling, single point] | –
9 | Oc1ccc(N2CCN(c3nc(-c4cccs4)nc4ccccc34)CC2)cc1 | 15.8 µM [falling, partial curve, poor fit] | –
10 | COCCCN(C(=O)c1ccccc1F)c1nc(-c2ccc(OC)cc2)cs1 | 15.8 µM [falling, partial curve, poor fit] | –
11 | Cc1cccnc1NC(=O)COc1ccc2c(c1)CCC2 | 23.1 µM [falling, partial curve] | –
12 | CCOC(=O)CN(C(=O)COc1nc(-c2ccccc2)cc(C)c1C#N)c1cccc(OC)c1 | 3.98 µM [falling, partial curve, poor fit] | –
13 | Cc1ccc(NC(=O)CSc2nnc(-c3cnccn3)n2Cc2ccco2)cc1 | 23.1 µM [falling, single point] | –
14 | COc1ccccc1C(=O)NC(=S)Nc1ccc(NC(=O)c2ccco2)cc1 | 3.16 µM [rising, full curve] | –
15 | COc1cccc(C(c2c(O)nc(SC)n(C)c2=O)c2c(O)nc(SC)n(C)c2=O)c1 | 17.8 µM [falling, single point] | –
16 | COc1ccc([C@H]2CC(=O)C=C(c3ccc4ncccc4c3)C2)cc1OC | 6.51 µM [rising, single point] | –
17 | Cc1nc(NC(=O)C2CCCC2)sc1Cc1ccc2c(c1)OCO2 | 18.4 µM [falling, single point] | –
18 | CCSc1nc(N2CCOCC2)c2c(c1C#N)CCCC2 | 15.8 µM [rising, partial curve, poor fit] | –
19 | CCOC(=O)C1C(=O)OC(C)(C)C1C(CC)C(=O)c1c(C)cc(C)cc1C (configuration not stated) | 4.47 µM [falling, full curve] | –
20 | COC(=O)c1ccc(NC(=O)c2ccc3nsnc3c2)cc1 | 2.51 µM [falling, partial curve, poor fit] | –
21 | Cn1c2c(c(=O)n(C)c1=O)C1c3ccccc3OCC1C(C)(C)O2 (configuration not stated) | 0.651 µM [rising, full curve, poor fit] | –

Row | Structure (SMILES) | AC50 [1] | AC50 [2]
22 | CC(C)(C)NC(=O)CSc1ncnc2c1cnn2-c1ccccc1 | 2.82 µM [falling, full curve, poor fit] | –
23 | COc1cccc(Cn2c(=O)c3[nH]cnc3n(-c3ccccc3C)c2=O)c1 | 17.8 µM [rising, partial curve] | 12.6 µM [falling, single point]
24 | COc1ccc(C(=O)N/N=C/C2CC=CCC2)cc1OC (configuration not stated) | 35.5 µM [falling, single point] | –
25 | CC(C)CN(C(=O)Cn1nnc(-c2ccc(F)cc2)n1)C1CCS(=O)(=O)C1 (configuration not stated) | 20.6 µM [falling, partial curve] | –
26 | Cc1ccc(/C([O-])=C(/C(=S)NCc2ccccc2)[n+]2cccc(CO)c2)cc1[N+](=O)[O-] | 35.5 µM [rising, partial curve, poor fit] | –
27 | O=[N+]([O-])c1ccc(N/N=C/c2ccccc2)c(F)c1 | 0.58 µM [rising, full curve] | –
28 | CC(Oc1ccc(F)cc1)C(=O)Nc1cc(S(=O)(=O)N2CCCCC2)ccc1N1CCOCC1 (configuration not stated) | 4.11 µM [rising, full curve, poor fit] | –
29 | COc1ccc(Nc2nc(NCc3ccco3)nc(N3CCOCC3)n2)cc1 | 35.5 µM [falling, single point] | –
30 | Cc1nc2c(cnn2-c2ccc(Cl)cc2)c(=O)n1-c1ccc(N2CCC(C)CC2)cc1 | 6.51 µM [rising, single point] | –
31 | COc1ccc(C(=O)/C=C2/C(=O)Nc3ccccc32)cc1OC | 35.5 µM [falling, single point] | –
32 | Cc1ccn2c(=O)nc(SCC(=O)c3ccccc3)nc2c1 | 1.84 µM [falling, full curve] | –
33 | CCNS(=O)(=O)c1ccc(OCCNS(C)(=O)=O)cc1 | 0.651 µM [falling, partial curve, poor fit] | –
34 | COc1cccc(/C=C/C2=CC(C)(C)NC(=S)N2)c1 | 10 µM [falling, partial curve] | –
35 | c1ccc(SCc2cc(-c3ccccc3)no2)cc1 | 15.8 µM [falling, single point] | –
36 | CC1CCCCC12NC(=O)N(CC(=O)OCC(=O)N(C)C1CCCCC1)C2=O (configuration not stated) | 9.2 µM [rising, partial curve, poor fit] | –
37 | Cc1c(NC(=O)C23CC4CC(CC(C)(C4)C2)C3)c(=O)n(-c2ccccc2)n1C | 3.98 µM [falling, single point] | –
38 | CCS(=O)(=O)N1Cc2ccccc2CC1C(=O)NCC12CC3CC(CC(C3)C1)C2 (configuration not stated) | 0.82 µM [rising, partial curve, poor fit] | –
39 | CC(=O)c1c(C)[nH]c(C(=O)COC(=O)c2cccc(S(=O)(=O)N(C)c3ccccc3)c2)c1C | 20.6 µM [falling, single point] | –
40 | O=C(O)CCCC(=O)Nc1ccc2c(c1)oc1ccccc12 | 0.282 µM [falling, full curve] | –
41 | O=C(O)c1ccccc1SC1CC(=O)N(c2cccc3ccccc23)C1=O (configuration not stated) | 20 µM [falling, partial curve, poor fit] | –
42 | O=C(/C=C/c1ccc(Cl)cc1Cl)NC(=S)Nc1ccc(CN2CCOCC2)cc1 | 23.1 µM [falling, single point] | –

3 structures from above, sorted by SMILES length, ascending:
Row | Structure (SMILES) | AC50 [1] | AC50 [2]
40 | O=C(O)CCCC(=O)Nc1ccc2c(c1)oc1ccccc12 | 0.282 µM [falling, full curve] | –
31 | COc1ccc(C(=O)/C=C2/C(=O)Nc3ccccc32)cc1OC | 35.5 µM [falling, single point] | –
26 | Cc1ccc(/C([O-])=C(/C(=S)NCc2ccccc2)[n+]2cccc(CO)c2)cc1[N+](=O)[O-] | 35.5 µM [rising, partial curve, poor fit] | –

Remaining list, next part

Row | Structure (SMILES) | AC50 [1] | AC50 [2]
43 | O=C(Nc1nc(N2C(=O)c3ccccc3C2=O)n(-c2ccccc2)n1)c1ccc(Cl)cc1 | 17.8 µM [falling, single point] | –
44 | CCn1c(SCC(=O)Nc2cc(C)on2)nc2sc(C)c(C)c2c1=O | – | 29.1 µM [falling, single point]
45 | Cc1ccc(S(=O)(=O)c2c(N)n(CC3CCOC3)c3nc4ccccc4nc23)cc1 (configuration not stated) | 29.1 µM [falling, single point] | –
46 | Cc1csc(NC(=O)CSc2nnc(CCNC(=O)c3cccs3)n2C)n1 | 29.1 µM [falling, single point] | –
47 | Cc1ccc(C(=O)Oc2cc(C)n(C)c(=O)c2)cc1 | 20 µM [falling, single point] | –
48 | Cc1c(C)n2c(SCC(=O)Nc3cccc4ccccc34)nnc2[nH]c1=O | 4.61 µM [falling, partial curve] | –
49 | COc1ccc(CNCCC(c2ccc(OC(C)C)cc2)C(C)C)cc1OC (configuration not stated) | 10 µM [falling, partial curve, poor fit] | –
50 | c1ccc(N2CCN(c3nc4cc5c(cc4s3)OCCO5)CC2)cc1 | 25.9 µM [rising, single point] | –
51 | CCOc1ccc(NC(=O)C2CC(=O)N(c3cc(C)cc(C)c3)C2)cc1 (configuration not stated) | 29.1 µM [rising, single point] | –
52 | CCOC(=O)C1=C(C)N(C)C(C)=C(C(=O)OCC)C1c1ccc(Cl)cc1 | 29.1 µM [falling, single point] | –
53 | Cc1ccc(/C=N/n2c(-c3cccnc3)n[nH]c2=S)s1 | 16.4 µM [falling, single point] | –
54 | CCOC(=O)c1c(C)[nH]c(C)c1C(=O)CSc1nnc(-c2ccco2)n1Cc1ccccc1 | 32.6 µM [falling, single point] | –
55 | COc1ccc([C@H]2CC(=O)C=C(c3ccc(OC)cc3OC)C2)cc1 | 10.3 µM [rising, partial curve] | 14.6 µM [falling, partial curve]
56 | CCC(C(=O)OCC(=O)Nc1c(Cl)cccc1Cl)c1ccccc1 (configuration not stated) | 2.59 µM [rising, partial curve] | –
57 | Cc1ccc(C(CNC(=O)Nc2ccc(Cl)cc2)N2CCN(C)CC2)cc1 (configuration not stated) | 0.158 µM [rising, full curve, poor fit] | –
58 | CCCOc1ccc(NCC(=O)Nc2ccc(C)cc2C)cc1 | 4.11 µM [falling, partial curve, poor fit] | –
59 | CCOc1ccc(C(=O)Nc2cc(C)on2)cc1OCC | 29.1 µM [rising, single point] | –
60 | CCCSc1nc2c(c(=O)[nH]c(=O)n2C)n1Cc1ccc(C)cc1 | 35.5 µM [rising, single point] | –
61 | CCSc1nccc(-c2nn(-c3ccc(C)cc3)ccc2=O)n1 | 29.1 µM [rising, single point] | –
62 | N#C/C(=C(/O)c1ccc([N+](=O)[O-])cc1)c1nc2ccccc2[nH]1 | 1.41 µM [falling, full curve, poor fit] | –
63 | CCOc1ccc2nc(N3C(=O)/C(=C/c4ccccc4)NC3=S)sc2c1 | 8.2 µM [rising, partial curve, poor fit] | 16.4 µM [falling, partial curve, poor fit]
